Measurements reported in PubChem BioAssay AID686943 (Drosophila RNAi Screening Center, 2013)
Aim: 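Search across the genome for regulators of signalling from receptor tyrosine kinase to ERK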 (primary screen). Cells: Drosophila S2R+ haemocyte-like cells expressing YFP-tagged ERK (Rolled). Reagents: long dsRNA against Drosophila genes. Conditions: insulin stimulation versus unstimulated cells; dose and duration not given. Detection: 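Per-plate z-scores of phospho-ERK immunostaining normalised to YFP-tagged ERK, measured with and without insulin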. Reading the numbers: replicate 1, z-score of dpERK with insulin: higher = more active ERK per ERK-YFP after insulin.
The screen tested about 23,000 reagents; shown is a random part of those that have a named target and a result. 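Extra replicates exist only for a retested subset of genes; insulin dose and duration not given; both raised and lowered dpERK matter.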 Names joined by + are all predicted targets of the reagent. Further read-outs or replicates are left out here. The record does not give: the amount of reagent, the time to read-out.

For obst-H [DRSC10935], the entry reads replicate 1, z-score of dpERK with insulin 2.27.
Against obst-H [DRSC10940] the deposit lists replicate 1, z-score of dpERK with insulin 0.67.
After knock-down of Atg4b [DRSC15988] the results were replicate 1, z-score of dpERK with insulin 0.25.
For CG7600 [DRSC09681] the deposit lists replicate 1, z-score of dpERK with insulin 0.68.
With knock-down of SkpA [DRSC18833], the screen gave replicate 1, z-score of dpERK with insulin 4.14.
CG43341 [DRSC05055] scored replicate 1, z-score of dpERK with insulin 0.26.
For sip1 [DRSC03609] the deposit lists replicate 1, z-score of dpERK with insulin -0.41.
sip1 [DRSC22648] gave replicate 1, z-score of dpERK with insulin 0.04.
Depletion of CG1387 [DRSC17904] resulted in: replicate 1, z-score of dpERK with insulin 0.8.
CG6324 [DRSC19985] scored replicate 1, z-score of dpERK with insulin -0.05.
CG10587 [DRSC11627] gave replicate 1, z-score of dpERK with insulin -0.07.
For CG12689 [DRSC17879], the values are replicate 1, z-score of dpERK with insulin -0.47.
RhoGAP5A [DRSC18294] scored replicate 1, z-score of dpERK with insulin 0.7.
Pvf2 [DRSC00968] scored replicate 1, z-score of dpERK with insulin 0.78.
Silencing of Pvf2 [DRSC02283] came out at: replicate 1, z-score of dpERK with insulin 0.33.
CG12935 + Nop10 [DRSC07025] scored replicate 1, z-score of dpERK with insulin 0.08.
With knock-down of CG6733 [DRSC16103], the screen gave replicate 1, z-score of dpERK with insulin 0.13.
With knock-down of CG9877 [DRSC04587], the record shows replicate 1, z-score of dpERK with insulin -0.9.
For Obp58b [DRSC04161], the values are replicate 1, z-score of dpERK with insulin -0.29.
CG5235 [DRSC10494] scored replicate 1, z-score of dpERK with insulin -0.86.
With knock-down of Gr94a [DRSC13597] the results were replicate 1, z-score of dpERK with insulin 2.26.
